Source: the supplement of paper PMC10849652
The other results are listed elsewhere or left out.

By UniProt entry, the sequences of proteins in these tests, tags left out. Where a name states a change or a piece, a line headed by the entry shows the natural chain unless it says otherwise.
UniProt Q8N157: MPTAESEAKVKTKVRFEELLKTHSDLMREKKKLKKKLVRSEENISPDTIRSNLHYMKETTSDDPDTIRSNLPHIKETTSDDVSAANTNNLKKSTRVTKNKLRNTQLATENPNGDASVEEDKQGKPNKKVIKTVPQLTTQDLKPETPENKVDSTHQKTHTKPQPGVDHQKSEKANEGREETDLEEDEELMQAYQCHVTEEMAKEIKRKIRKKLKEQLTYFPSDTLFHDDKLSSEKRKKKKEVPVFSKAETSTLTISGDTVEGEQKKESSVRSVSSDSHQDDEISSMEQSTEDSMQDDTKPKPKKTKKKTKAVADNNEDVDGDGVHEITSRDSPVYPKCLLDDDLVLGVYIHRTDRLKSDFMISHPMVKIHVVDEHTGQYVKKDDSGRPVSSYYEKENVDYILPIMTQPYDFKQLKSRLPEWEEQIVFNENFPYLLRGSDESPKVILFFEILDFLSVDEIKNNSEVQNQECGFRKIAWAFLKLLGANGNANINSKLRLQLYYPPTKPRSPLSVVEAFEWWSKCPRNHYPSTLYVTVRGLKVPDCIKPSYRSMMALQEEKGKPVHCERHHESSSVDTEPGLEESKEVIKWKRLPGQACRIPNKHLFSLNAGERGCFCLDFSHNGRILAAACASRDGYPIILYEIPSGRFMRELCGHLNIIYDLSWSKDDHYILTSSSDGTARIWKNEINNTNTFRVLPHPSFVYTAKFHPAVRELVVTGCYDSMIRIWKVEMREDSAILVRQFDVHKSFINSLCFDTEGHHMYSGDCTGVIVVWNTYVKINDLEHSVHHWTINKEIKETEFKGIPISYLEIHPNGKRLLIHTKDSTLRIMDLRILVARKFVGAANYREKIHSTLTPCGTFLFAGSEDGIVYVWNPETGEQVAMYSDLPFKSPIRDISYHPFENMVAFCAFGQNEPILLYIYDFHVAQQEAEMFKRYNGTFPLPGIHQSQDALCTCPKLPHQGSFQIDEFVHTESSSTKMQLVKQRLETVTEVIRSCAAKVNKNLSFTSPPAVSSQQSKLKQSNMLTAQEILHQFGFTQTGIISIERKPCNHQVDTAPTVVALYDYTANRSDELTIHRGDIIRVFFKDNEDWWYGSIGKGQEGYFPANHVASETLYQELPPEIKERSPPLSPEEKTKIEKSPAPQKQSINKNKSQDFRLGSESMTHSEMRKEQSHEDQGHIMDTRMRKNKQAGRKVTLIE
UniProt Q04828: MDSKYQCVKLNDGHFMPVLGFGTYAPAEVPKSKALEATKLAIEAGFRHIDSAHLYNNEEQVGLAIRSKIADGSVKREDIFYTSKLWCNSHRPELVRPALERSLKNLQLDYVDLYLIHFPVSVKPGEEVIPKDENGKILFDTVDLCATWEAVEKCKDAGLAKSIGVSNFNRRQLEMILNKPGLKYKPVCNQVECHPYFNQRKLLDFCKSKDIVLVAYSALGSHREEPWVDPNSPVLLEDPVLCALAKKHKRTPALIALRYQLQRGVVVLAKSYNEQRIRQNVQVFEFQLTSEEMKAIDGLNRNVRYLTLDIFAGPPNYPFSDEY
UniProt Q63HM1: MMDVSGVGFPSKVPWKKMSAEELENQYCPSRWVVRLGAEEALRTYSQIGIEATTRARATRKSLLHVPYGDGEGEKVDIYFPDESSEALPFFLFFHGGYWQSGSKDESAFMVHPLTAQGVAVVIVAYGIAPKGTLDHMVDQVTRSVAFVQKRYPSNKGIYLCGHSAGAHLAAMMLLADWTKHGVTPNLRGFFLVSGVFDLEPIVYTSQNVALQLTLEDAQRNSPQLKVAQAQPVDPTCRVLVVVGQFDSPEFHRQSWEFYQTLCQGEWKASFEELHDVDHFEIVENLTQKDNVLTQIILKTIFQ
UniProt P35612: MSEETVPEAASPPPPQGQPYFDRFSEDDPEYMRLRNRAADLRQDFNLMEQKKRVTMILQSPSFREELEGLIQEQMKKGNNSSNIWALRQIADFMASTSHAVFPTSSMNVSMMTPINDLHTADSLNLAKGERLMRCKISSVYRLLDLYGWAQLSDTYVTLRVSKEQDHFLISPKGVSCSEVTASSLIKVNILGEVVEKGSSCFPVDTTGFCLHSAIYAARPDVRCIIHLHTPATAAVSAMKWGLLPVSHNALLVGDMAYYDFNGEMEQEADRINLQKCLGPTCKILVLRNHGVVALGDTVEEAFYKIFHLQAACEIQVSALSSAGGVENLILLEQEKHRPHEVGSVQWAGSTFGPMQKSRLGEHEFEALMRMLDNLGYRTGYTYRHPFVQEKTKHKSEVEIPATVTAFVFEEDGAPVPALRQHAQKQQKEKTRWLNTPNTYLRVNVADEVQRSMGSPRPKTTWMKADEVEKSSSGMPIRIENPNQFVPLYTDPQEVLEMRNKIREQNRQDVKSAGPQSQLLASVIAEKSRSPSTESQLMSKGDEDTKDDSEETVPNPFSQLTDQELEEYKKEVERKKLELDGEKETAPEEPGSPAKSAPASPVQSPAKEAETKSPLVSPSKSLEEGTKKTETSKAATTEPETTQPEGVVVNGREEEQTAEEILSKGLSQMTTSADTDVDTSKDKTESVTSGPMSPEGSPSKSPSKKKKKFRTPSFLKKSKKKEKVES
UniProt Q3LIE5: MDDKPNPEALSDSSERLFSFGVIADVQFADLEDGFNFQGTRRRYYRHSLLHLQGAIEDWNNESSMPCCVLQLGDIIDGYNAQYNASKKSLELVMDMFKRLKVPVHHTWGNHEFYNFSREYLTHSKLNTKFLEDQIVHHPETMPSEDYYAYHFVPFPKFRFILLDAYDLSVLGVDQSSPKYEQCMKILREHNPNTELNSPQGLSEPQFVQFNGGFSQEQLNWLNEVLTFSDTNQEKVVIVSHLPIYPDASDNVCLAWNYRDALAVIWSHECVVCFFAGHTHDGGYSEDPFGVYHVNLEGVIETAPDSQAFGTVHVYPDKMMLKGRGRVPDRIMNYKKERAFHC
UniProt Q9BQI0: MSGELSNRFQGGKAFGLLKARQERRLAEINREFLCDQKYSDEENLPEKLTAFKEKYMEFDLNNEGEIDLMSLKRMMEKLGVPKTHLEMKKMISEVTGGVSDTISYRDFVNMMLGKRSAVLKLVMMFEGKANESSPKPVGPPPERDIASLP
UniProt P13686: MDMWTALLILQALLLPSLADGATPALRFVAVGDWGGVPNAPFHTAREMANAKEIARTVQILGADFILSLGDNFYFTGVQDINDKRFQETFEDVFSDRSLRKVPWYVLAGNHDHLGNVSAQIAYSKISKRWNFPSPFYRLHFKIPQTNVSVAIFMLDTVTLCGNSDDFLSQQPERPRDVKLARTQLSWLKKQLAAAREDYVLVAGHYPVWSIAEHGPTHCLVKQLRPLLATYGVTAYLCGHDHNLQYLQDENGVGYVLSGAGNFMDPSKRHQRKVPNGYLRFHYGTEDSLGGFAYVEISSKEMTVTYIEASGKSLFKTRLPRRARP
UniProt Q6ZN18: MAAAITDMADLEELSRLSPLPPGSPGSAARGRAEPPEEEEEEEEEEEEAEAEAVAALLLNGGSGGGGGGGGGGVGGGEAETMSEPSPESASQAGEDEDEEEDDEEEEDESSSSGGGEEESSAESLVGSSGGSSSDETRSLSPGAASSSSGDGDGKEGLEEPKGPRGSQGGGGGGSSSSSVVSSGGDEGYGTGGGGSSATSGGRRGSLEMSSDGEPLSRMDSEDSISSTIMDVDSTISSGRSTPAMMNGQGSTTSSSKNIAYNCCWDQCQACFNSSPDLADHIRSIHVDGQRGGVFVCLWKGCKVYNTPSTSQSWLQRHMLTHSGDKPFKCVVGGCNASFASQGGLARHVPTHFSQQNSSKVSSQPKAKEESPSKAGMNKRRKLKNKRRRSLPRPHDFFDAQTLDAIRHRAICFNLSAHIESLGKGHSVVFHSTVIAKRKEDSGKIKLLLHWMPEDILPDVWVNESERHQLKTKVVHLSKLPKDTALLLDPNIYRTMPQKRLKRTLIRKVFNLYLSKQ
UniProt Q9NRZ5: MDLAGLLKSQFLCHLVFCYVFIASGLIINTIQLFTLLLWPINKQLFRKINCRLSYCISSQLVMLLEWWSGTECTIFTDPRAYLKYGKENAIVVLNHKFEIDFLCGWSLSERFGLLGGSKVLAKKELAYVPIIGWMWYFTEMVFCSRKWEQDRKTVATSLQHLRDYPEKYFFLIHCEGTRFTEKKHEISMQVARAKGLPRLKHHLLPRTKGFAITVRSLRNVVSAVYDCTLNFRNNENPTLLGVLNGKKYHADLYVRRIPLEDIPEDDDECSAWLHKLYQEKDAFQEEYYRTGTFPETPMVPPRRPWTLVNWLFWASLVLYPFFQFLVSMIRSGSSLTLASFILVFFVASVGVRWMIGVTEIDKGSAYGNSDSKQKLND
UniProt Q8WYP5: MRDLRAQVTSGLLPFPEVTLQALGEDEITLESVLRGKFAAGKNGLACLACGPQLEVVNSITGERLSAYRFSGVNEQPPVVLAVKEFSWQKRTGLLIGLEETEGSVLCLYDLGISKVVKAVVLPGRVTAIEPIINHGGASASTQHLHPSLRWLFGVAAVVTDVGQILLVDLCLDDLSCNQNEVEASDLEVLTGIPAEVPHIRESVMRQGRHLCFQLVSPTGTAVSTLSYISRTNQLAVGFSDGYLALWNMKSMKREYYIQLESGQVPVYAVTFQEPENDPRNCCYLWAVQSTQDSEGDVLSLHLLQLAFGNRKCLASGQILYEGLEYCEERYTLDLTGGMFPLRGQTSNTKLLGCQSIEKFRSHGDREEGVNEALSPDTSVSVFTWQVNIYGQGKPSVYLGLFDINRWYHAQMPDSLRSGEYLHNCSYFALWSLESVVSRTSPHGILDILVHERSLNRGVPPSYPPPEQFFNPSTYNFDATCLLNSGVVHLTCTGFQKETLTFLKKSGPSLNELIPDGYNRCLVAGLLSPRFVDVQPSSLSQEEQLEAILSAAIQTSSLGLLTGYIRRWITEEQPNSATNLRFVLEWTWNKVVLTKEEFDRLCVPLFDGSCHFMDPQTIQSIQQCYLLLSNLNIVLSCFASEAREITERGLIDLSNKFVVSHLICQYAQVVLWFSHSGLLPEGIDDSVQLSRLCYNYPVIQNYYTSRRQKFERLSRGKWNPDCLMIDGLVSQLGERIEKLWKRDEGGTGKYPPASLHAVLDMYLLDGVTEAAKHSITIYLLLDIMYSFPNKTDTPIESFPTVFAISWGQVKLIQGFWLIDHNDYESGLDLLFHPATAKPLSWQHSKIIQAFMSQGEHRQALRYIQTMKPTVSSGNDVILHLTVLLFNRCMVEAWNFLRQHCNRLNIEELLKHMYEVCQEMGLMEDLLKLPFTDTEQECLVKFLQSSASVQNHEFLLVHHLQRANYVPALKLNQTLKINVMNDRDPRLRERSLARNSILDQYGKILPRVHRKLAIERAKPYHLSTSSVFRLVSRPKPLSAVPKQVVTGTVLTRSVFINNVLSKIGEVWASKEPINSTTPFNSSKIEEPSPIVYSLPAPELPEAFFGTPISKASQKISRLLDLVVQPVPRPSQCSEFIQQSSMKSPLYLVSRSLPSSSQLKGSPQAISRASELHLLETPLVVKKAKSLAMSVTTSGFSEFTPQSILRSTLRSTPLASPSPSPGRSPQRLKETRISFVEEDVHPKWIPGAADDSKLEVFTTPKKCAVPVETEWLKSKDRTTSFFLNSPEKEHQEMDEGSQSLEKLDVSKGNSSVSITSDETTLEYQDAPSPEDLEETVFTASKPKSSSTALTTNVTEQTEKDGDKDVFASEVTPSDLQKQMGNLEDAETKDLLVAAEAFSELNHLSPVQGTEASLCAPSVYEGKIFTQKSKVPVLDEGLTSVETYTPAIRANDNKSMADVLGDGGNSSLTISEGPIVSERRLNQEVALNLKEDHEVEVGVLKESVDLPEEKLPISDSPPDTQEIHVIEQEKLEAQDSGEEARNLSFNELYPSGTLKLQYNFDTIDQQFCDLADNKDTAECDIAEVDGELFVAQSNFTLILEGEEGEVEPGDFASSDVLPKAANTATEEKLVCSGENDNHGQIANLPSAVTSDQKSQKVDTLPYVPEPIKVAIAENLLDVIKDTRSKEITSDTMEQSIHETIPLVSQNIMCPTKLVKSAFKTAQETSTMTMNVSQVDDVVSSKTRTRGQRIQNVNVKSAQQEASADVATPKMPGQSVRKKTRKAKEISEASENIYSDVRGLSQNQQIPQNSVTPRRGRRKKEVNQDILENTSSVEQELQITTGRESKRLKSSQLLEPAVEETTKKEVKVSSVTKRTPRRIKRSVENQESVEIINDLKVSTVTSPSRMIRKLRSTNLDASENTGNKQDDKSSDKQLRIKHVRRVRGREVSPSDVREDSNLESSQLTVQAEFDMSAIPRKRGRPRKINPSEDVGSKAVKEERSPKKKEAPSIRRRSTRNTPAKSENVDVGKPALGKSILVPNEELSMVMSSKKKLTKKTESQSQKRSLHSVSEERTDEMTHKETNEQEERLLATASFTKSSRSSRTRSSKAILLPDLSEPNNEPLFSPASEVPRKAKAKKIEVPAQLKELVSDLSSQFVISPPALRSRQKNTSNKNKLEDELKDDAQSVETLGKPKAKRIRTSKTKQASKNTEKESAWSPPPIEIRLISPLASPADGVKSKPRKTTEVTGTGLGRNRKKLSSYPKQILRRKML

Compound: NCC(=O)Nc1ccc(-n2nc(C(F)(F)F)cc2-c2ccc3c(ccc4ccccc43)c2)cc1
Assay: log2 fold change, soluble protein after heating vs DMSO (PISA); higher = thermal stabilisation; K562 lysate, 10 uM; active = over 0.2 and 3.5 SD of the protein, either way, in both replicates (recomputed)
Outline: (§1)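 Soluble protein was defined as the supernatant remaining after 21,000xg for 90 min, following pooling of heated aliquots and adjustment to 0.5% NP-40 at 4°C. Before that, crude K562 extract at 1 mg/mL protein in PBS pH 7.4 with 1 mM MgCl2 was treated with 10 μM compound for 30 min and heated for 3 min across 48°C-58°C. Quantification used TMTpro 16plex LC-MS/MS with channel sums equalised, and values are log-two fold changes in thermal stability relative to solvent controls from duplicates.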

Target	log2 fold change
AHI1 (UniProt Q8N157)	inactive: 0.019
AKR1C1 (UniProt Q04828)	inactive: 0.018
ADAD1 (UniProt Q96M93)	inactive: -0.001
AFM (UniProt P43652)	inactive: -0.11
ADD1 isoform 4 (UniProt P35611)	inactive: 0.037
ADSL (UniProt P30566)	inactive: 0.027
AHSP (UniProt Q9NZD4)	inactive: 0.033
AFMID isoform 2 (UniProt Q63HM1)	inactive: -0.015
ADD2 isoform 9 (UniProt P35612)	inactive: 0.074
ADPRM (UniProt Q3LIE5)	inactive: 0.135
ACY1 (UniProt Q03154)	inactive: -0.004
ACTN2, A0A494C031	inactive: 0.108
ADCK1 (UniProt Q86TW2)	inactive: 0.277
ACTB (UniProt C9JTX5)	inactive: 0.185

Compound: O=C(CCCCCCC(=O)Nc1ccccc1)NO [vorinostat]
Assay: as above
Outline: as §1

Target	log2 fold change
AIF1L (UniProt Q9BQI0)	inactive: -0.048
ACP5 (UniProt P13686)	inactive: -0.053
AHI1 (UniProt Q8N157)	inactive: 0.084
AKR1C1 (UniProt Q04828)	inactive: -0.48
ADAMTSL4 isoform 3 (UniProt Q6UY14)	inactive: 0.134
AEBP2 (UniProt Q6ZN18)	inactive: 0.138
AGPAT4 (UniProt Q9NRZ5)	inactive: -0.016
AKAP17A (UniProt Q02040)	inactive: -0.479
ADAM15 (UniProt Q13444)	inactive: 0.085
AKAP10 (UniProt O43572)	inactive: -0.429
ADD1 isoform 4 (UniProt P35611)	inactive: 0.237
AFG1L (UniProt Q8WV93)	inactive: -0.334
ADCY3 (UniProt O60266)	inactive: -0.063
ADSL (UniProt P30566)	inactive: 0.014
ACSL5 isoform 3 (UniProt Q9ULC5)	inactive: -0.136
AHCTF1 isoform 2 (UniProt Q8WYP5)	inactive: 0.106
AFAP1L1 (UniProt Q8TED9)	inactive: 0.03
ACSL6 isoform 1 (UniProt Q9UKU0)	inactive: -0.294
ACTR8 (UniProt Q9H981)	inactive: -0.298
ADCY7 (UniProt P51828)	inactive: -0.45
ADD2 isoform 9 (UniProt P35612)	inactive: -0.172
ACY1 (UniProt Q03154)	inactive: 0.108
ACTN2, A0A494C031	inactive: -0.078
